Reference: US4394382A, “Dihydrobenzopyran compounds and pharmaceutical composition comprising said compounds” (Kowa Company, Ltd., priority 1980, dated 1983)
Counter-ions that a name gives are not always drawn.

System: potassium contracture, left circumflex branch (coronary artery)
Experiment: isolated coronary artery, action on potassium contracture (Magnus method)
Details: dog coronary artery, 50% inhibition of maximum reaction, reciprocal logarithm of molar concentration
Protocol: Each of the test drugs was used in a concentration of 10^-9 to 4×10^-4 mole/1000 ml (M). (3) Isolated coronary artery Using the left circumflex branch of a dog, the action of the test drugs on potassium contracture was examined.

## CC(C)NCC(O)COc1cccc2ccccc12 (stereo not shown) [Comparative drug I, propranolol hydrochloride, reference compound]
  (3) pD'2: 4.1
